B1: NUP50 (mouse) (protein, UniProt Q9JIH2 1-466)
chain: MAKRVAEKELTDRNWDEEDEVEEMGTFSVASEEVMKNRAVKKAKRRNVGFESDSGGAFKGFKGLVVPSGGGGFSGFGGSGGKPLEGLTNGNSTDNATPFSNVKTAAEPKAAFGSFAVNGPTTLVDKKISSPKCNNSNQPPSSGPASSTACPGNAYHKQLAGLNCSVRDWIVKHVNTNPLCDLTPIFKDYERYLATIEKQLENGGGSSSESQTDRATAGMEPPSLFGSTKLQQESPFSFHGNKAEDTSEKVEFTAEKKSDAAQGATSASFSFGKKIESSALGSLSSGSLTGFSFSAGSSSLFGKDAAQSKAASSLFSAKASESPAGGGSSECRDGEEEENDEPPKVVVTEVKEEDAFYSKKCKLFYKKDNEFKEKGVGTLHLKPTATQKTQLLVRADTNLGNILLNVLIAPNMPCTRTGKNNVLIVCVPNPPLDEKQPTLPATMLIRVKTSEDADELHKILLEKKDA
B2: RPAP2 (mouse) (protein, UniProt Q8VC34 1-614)
chain: MADSAVPCSLGPSTRASSTHRDATGTKQTRALKRGDASKRQAELEAAIQRKVEFERKAVRIVEQLLEENITEEFLKECGMFITPAHYSDVVDERSIIKLCGYPLCQKKLGVIPKQKYRISTKTNKVYDITERKSFCSNFCYRASKFFETQIPKTPVWVREEERPPDFQLLKKGQSGSSGEVVQFFRDAVTAADVDGSGALEAQCDPASSSSWSERASDEEEQGFVSSLLPGNRPKAVDTRPQPHTKSSIMRKKAAQNVDSKEGEQTVSEVTEQLDNCRLDSQEKVATCKRPLKKESTQISSPGPLCDRFNTSAISEHKHGVSQVTLVGISKKSAEHFRSKFAKSNPGSGSASGLVHVRPEVAKANLLRVLSDTLTEWKTEETLKFLYGQNHDSVCLKPSSASEPDEELDEDDISCDPGSCGPALSQAQNTLDATLPFRGSDTAIKPLPSYESLKKETEMLNLRVREFYRGRCVLNEDTTKSQDSKESVLQRDPSFPLIDSSSQNQIRRRIVLEKLSKVLPGLLGPLQITMGDIYTELKNLIQTFRLSNRNIIHKPVEWTLIAVVLLLLLTPILGIQKHSPKNVVFTQFIATLLTELHLKFEDLEKLTMIFRTSC
B3: GPHN (mouse) (protein, UniProt Q8BUV3 1-769)
chain: MATEGMILTNHDHQIRVGVLTVSDSCFRNLAEDRSGINLKDLVQDPSLLGGTISAYKIVPDEIEEIKETLIDWCDEKELNLILTTGGTGFAPRDVTPEATKEVIEREAPGMALAMLMGSLNVTPLGMLSRPVCGIRGKTLIINLPGSKKGSQECFQFILPALPHAIDLLRDAIVKVKEVHDELEDLPSPPPPLSPPPTTSPHKQTEDKGVQCEEEEEEKKDSGVASTEDSSSSHITAAALAAKIPDSIISRGVQVLPRDTASLSTTPSESPRAQATSRLSTASCPTPKQIRRPDESKGVASRVGSLKARLPSCSSTYSVSEVQSRCSSKENILRASHSAVDITKVARRHRMSPFPLTSMDKAFITVLEMTPVLGTEIINYRDGMGRVLAQDVYAKDNLPPFPASVKDGYAVRAADGPGDRFIIGESQAGEQPTQTVMPGQVMRVTTGAPIPCGADAVVQVEDTELIRESDDGTEELEVRILVQARPGQDIRPIGHDIKRGECVLAKGTHMGPSEIGLLATVGVTEVEVNKFPVVAVMSTGNELLNPEDDLLPGKIRDSNRSTLLATIQEHGYPTINLGIVGDNPDDLLNALNEGISRADVIITSGGVSMGEKDYLKQVLDIDLHAQIHFGRVFMKPGLPTTFATLDIDGVRKIIFALPGNPVSAVVTCNLFVVPALRKMQGILDPRPTIIKARLSCDVKLDPRPEYHRCILTWHHQEPLPWAQSTGNQMSSRLMSMRSANGLLMLPPKTEQYVELHKGEVVDVMVIGRL
B4: PRKRA (mouse) (protein, UniProt Q9WTX2 1-313)
chain: MSHSRHRAEAPPLQREDSGTFSLGKMITAKPGKTPIQVLHEYGMKTKNIPVYECERSDVQVHVPTFTFRVTVGDITCTGEGTSKKLAKHRAAEAAINILKANASICFAVPDPLMPDPSKQPKNQLNPIGSLQELAIHHGWRLPEYTLSQEGGPAHKREYTTICRLESFMETGKGASKKQAKRNAAEKFLAKFSNISPENHISLTNVVGHSLGCTWHSLRNSPGEKINLLKRSLLSLPNTDYIQLLSEIASEQGFNITYLDIEELSANGQYQCLAELSTSPITVCHGSGISCGNAQSDAAHNALQYLKIIAERK
B5: ZNF281 (mouse) (protein, UniProt Q99LI5 1-893)
chain: MKIGSGFLSGGGGPSSSGGSGSGGSSGSASGGSGGGRRAEMEPTFPQSMVMFNHRLPPVTSFTRPAGTAAPPPQCVLSSSTSAAPAAEPPPPPAPDMTFKKEPAASAAAFPSQRTSWGFLQSLVSIKQEKPADPEEQPSHHHHHHHHYGGLFAGAEERSPGLGGGEGGSHGVIQDLSLLHQHAQQQPAQHHRDVLLSSGSRTDEHGNQEPKQDANVKKAKRPKPESQGIKAKRKPSASSKPLVGEGEGAVLSPSQKPHICDHCSAAFRSSYHLRRHVLIHTGERPFQCSQCSMGFIQKYLLQRHEKIHSREKPFGCDQCSMKFIQKYHMERHKRTHSGEKPYKCDTCQQYFSRTDRLLKHRRTCGEAIAKGAASAEPGSSNHNSMGNLAVLSQGNTSSSRRKSKSKSIAIENKEHKTGKTNESQMSNNINMQSYSVEMPTVSTSGSIIGTGIDELQKRVPKLIFKKGSRKNADKSYLNFVSPLPDVVGQKSLSGKPGGSLGIVSNNSVETISLLQSTSGKQGPISSNYDDAMQFSKKRRYLPTASSNSAFSINVGHMVSQQSVIQSAGVSVLDNEAPLSLIDSSALNAEIKSCHDKSGIPDEVLQSILDQYSGKSETQKEDPFNLTEPRVDLHTSGEHSELVQEENLSPGTQTPSNDKTSMLQEYSKYLQQAFEKSTNAGFTLGHGFQFVSLSSPLHNHTLFPEKQIYTTSPLECGFGQSVTSVLPSSLPKPPFGMLFGSQPGLYLSALDATHQQLTPSQELDDLIDSQKNLETSSAFQSSSQKLTSQKEQQKNLESSTSFQIPSQELASQIDPQKDIEPRTTYQIENFAQAFGSQFKSGSRVPMTFITNSNGEVDHRVRTSVSDFSGYTNMMSDVSEPCSTRVKTPTSQSYR
B6: MLF2 (mouse) (protein, UniProt Q99KX1 1-247)
chain: MFRFMRDVEPEDPMFLMDPFAIHRQHMSRMLSGGFGYSPFLSITDGNMPATRPASRRMQAGAVSPFGMLGMSGGFMDMFGMMNDMIGNMEHMAAGGNCQTFSSSTVISYSNTGDGAPKVYQETSEMRSAPGGIRETRRTVRDSDSGLEQMSIGHHIRDRAHILQRSRNHRTGDQEERQDYINLDESEAAAFDDEWRRETSRYRQQRPLEFRRHEASVGGGRRAEGPPRLAIQGPEDSPSRQSRRYDW
B7: ATXN2 (mouse) (protein, UniProt O70305 1-1285)
chain: MRSSTAAVQRPAAGDPEPRRPAGWAARRSLPRTARRGGRGGAVAYPSAGPPPRGPGAPPRGPRSPPCASDCFGSNGHGASRPGSRRLLGVCGPPRPFVVVLLALAPAATPARACPPGVRASPPRSGVSSSARPAPGCPRPACEPVYGPLTMSLKPQPQPPAPATGRKPGGGLLSSPGAAPASAAVTSASVVPAPAAPVASSSAAAGGGRPGLGRGRNSSKGLPQPTISFDGIYANVRMVHILTSVVGSKCEVQVKNGGIYEGVFKTYSPKCDLVLDAAHEKSTESSSGPKREEIMESVLFKCSDFVVVQFKDTDSSYARRDAFTDSALSAKVNGEHKEKDLEPWDAGELTASEELELENDVSNGWDPNDMFRYNEENYGVVSTYDSSLSSYTVPLERDNSEEFLKREARANQLAEEIESSAQYKARVALENDDRSEEEKYTAVQRNCSDREGHGPNTRDNKYIPPGQRNREVLSWGSGRQSSPRMGQPGPGSMPSRAASHTSDFNPNAGSDQRVVNGGVPWPSPCPSHSSRPPSRYQSGPNSLPPRAATHTRPPSRPPSRPSRPPSHPSAHGSPAPVSTMPKRMSSEGPPRMSPKAQRHPRNHRVSAGRGSMSSGLEFVSHNPPSEAAAPPVARTSPAGGTWSSVVSGVPRLSPKTHRPRSPRQSSIGNSPSGPVLASPQAGIIPAEAVSMPVPAASPTPASPASNRALTPSIEAKDSRLQDQRQNSPAGSKENVKASETSPSFSKADNKGMSPVVSEHRKQIDDLKKFKNDFRLQPSSTSESMDQLLSKNREGEKSRDLIKDKTEASAKDSFIDSSSSSSNCTSGSSKTNSPSISPSMLSNAEHKRGPEVTSQGVQTSSPACKQEKDDREEKKDTTEQVRKSTLNPNAKEFNPRSFSQPKPSTTPTSPRPQAQPSPSMVGHQQPAPVYTQPVCFAPNMMYPVPVSPGVQPLYPIPMTPMPVNQAKTYRAGKVPNMPQQRQDQHHQSTMMHPASAAGPPIVATPPAYSTQYVAYSPQQFPNQPLVQHVPHYQSQHPHVYSPVIQGNARMMAPPAHAQPGLVSSSAAQFGAHEQTHAMYACPKLPYNKETSPSFYFAISTGSLAQQYAHPNAALHPHTPHPQPSATPTGQQQSQHGGSHPAPSPVQHHQHQAAQALHLASPQQQSAIYHAGLAPTPPSMTPASNTQSPQSSFPAAQQTVFTIHPSHVQPAYTTPPHMAHVPQAHVQSGMVPSHPTAHAPMMLMTTQPPGPKAALAQSALQPIPVSTTAHFPYMTHPSVQAHHQQQL
B8: UBAP2L (mouse) (protein, UniProt Q80X50 1-1107)
chain: MMTSVGTNRARGNWEQPQNQNQTQHKQRPQATAEQIRLAQMISDHNDADFEEKVKQLIDITGKNQDECVIALHDCNGDVNRAINVLLEGNPDTHSWEMVGKKKGVSGQKDGGQTESNEEGKENRDRDRDYSRRRGGPPRRGRGASRGREFRGQENGLDGTKSGGPSGRGTDRGRRGRGRGRGSSGRRGGRFSAQGMGTFNPADYAEPANTDDNYGNSSGNTWNNTGHFEPDDGTRLDFIGVEGSNYPRKFETAPGAWRTATEEWGTEDWNEDLSETKIFTASNVSSVPLPAENVTITAGQRIDLAVLLGKTPSSMENDSSNLDPSQAPSLAQPLVFSNSKQNAISQPASGSTFSHHSMVSMLGKGFGDVGEAKGGSTTGSQFLEQFKTAQALAQLAAQHSQSGSTTTSSWDMGSTTQSPSLVQYDLKSANDSTVHSPFTKRQAFTPSSTMMEVFLQEKPPAVATSTAAPPPPSSPLPSKSTSAPQMSPGSSDNQSSSPQPAQQKLKQQKKKTSLTSKIPALAVEMPGSADISGLNLQFGALQFGSEPVLSDYESTPTTSASSSQAPSSLYTSTASESSSTVSSNQSQESGYQSGPIQSTTYTSQNNAQGPLYEQRSTQTRRYPSSISSSPQKDLTQAKNGFSSVQATQLQTTQSVEGATGSAVKSESPSTSSIPSLNETVPAASLLTTANQHSSSLSGLSHTEEIPNTTTTQHSSALSTQQNTLSSSTSSGRTSTSTLLHTSVESEANLHSSSSTFSTTSSTVSAPPPVVSVSSSLNSGSSLGLSLGSNSTVTASTRSSVATTSGKAPPNLPPGVPPLLPNPYIMAPGLLHAYPPQVYGYDDLQMLQTRFPLDYYSIPFPTPTTPLTGRDGSLASNPYSGDLTKFGRGDASSPAPATTLAQPQQNQTQTHHTTQQTFLNPALPPGYSYTSLPYYTGVPGLPSTFQYGPAVFPVAPTSSKQHGVNVSVNASATPFQQPSGYGSHGYNTGVSVTSSNTGVPDISGSVYSKTQQSFEKQGFHSGTPAASFNLPSALGSGGPINPATAAAYPPAPFMHILTPHQQPHSQILHHHLQQDGQTGSGQRSQTSSIPQKPQTNKSAYNSYSWGAN

No constants are given. Whether binding was seen depends on the method and setting. Binding seen in cells or lysates may run through a third protein. Here binding means that the protein was enriched with, or labelled near, the bait; the list need not be complete.

In this assay the target is LINE-1 encoded ORF1p (mouse) (mouse (endogenous in MN9D)). Nature of the assay: affinity purification with mass spectrometry.
As for B1, the binding result was “binds”. Under B2 stands “binds”. The same measure for B3: “binds”. Under B4 stands “binds”.

As to B5, the binding result was “binds”.

Regarding B6, the binding result was “binds”. Under B7 stands “binds”; under B8, “binds”.

The record behind these values is article doi:10.1101/2025.09.05.674414.
